For 1 molecule, binding results are on record in patent publication US20090264354A1 (UNIVERSITY OF UTAH RESEARCH FOUNDATION, published 2009).

These are yes or no findings as the source states them, for the method shown. Binding seen in cells or lysates may run through a third protein. Some binding calls cover weakened binding; strength is not graded here. Where a sequence is shown, tags or fusion partners need not be part of it.

This experiment deals with T1, Penumbra-EGFP fusion protein (murine Penumbra with C-terminal enhanced green fluorescent protein, expressed from pEGFP N1/Pen) (mouse) (UniProt Q8R3S2).
T1 sequence: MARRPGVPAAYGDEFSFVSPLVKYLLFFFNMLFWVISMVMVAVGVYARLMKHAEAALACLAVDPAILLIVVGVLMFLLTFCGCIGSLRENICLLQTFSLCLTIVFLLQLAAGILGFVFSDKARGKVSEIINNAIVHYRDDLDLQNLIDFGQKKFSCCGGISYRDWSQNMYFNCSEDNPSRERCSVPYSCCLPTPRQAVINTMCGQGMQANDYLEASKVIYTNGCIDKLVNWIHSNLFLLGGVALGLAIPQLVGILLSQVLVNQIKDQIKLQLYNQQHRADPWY
In words: anti-Myc co-immunoprecipitation from co-transfected NIH3T3 lysates, non-reducing Western blot probed with anti-Myc and anti-EGFP; 89-kD dimer. For orientation: In western blotting, separated proteins are transferred to a membrane and probed.

B1: Penumbra-Myc fusion protein (murine Penumbra with C-terminal 11-aa Myc and 6-aa His tags, expressed from pcDNA3.1/Pen-Myc) (other)
chain: MARRPGVPAAYGDEFSFVSPLVKYLLFFFNMLFWVISMVMVAVGVYARLMKHAEAALACLAVDPAILLIVVGVLMFLLTFCGCIGSLRENICLLQTFSLCLTIVFLLQLAAGILGFVFSDKARGKVSEIINNAIVHYRDDLDLQNLIDFGQKKFSCCGGISYRDWSQNMYFNCSEDNPSRERCSVPYSCCLPTPRQAVINTMCGQGMQANDYLEASKVIYTNGCIDKLVNWIHSNLFLLGGVALGLAIPQLVGILLSQVLVNQIKDQIKLQLYNQQHRADPWY
notes: Seen as a 29-kD monomer on reducing gels; also called Pen-Myc fusion protein; Pen-Myc protein; not shown: 11-aa Myc tag from the pcDNA3.1 vector; 6-aa His tag from the pcDNA3.1 vector
On to B1, for which the binding result is “binds”.
